The whole screen tested about 410,000 compounds, of which about 310 (0.076%) were called active. Inconclusive results, whose numbers are uncertain, are shown with a selection of clear calls. Calls come from the whole dose curve; as a rule, active = well fitted activation curve with a large enough effect; inconclusive = small, poorly fitted or top-dose-only effect, or another doubt; inactive = no such curve, though single readings can be large or run the other way. Where the call is inconclusive, the potency comes from a doubtful curve fit.
These molecules were tested against Parathyroid hormone/parathyroid hormone-related peptide receptor (Homo sapiens) (UniProt Q03431) (assay: qHTS for PTHR1 Agonists: Primary Screen). Conditions: HEK293 GP2 PTHR1 cells, GloSensor cAMP luminescence, 1 h; activation: at 115 µM (top of the series) unless noted; series mostly up to 115 µM.
In short: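 HEK-293-derived GP2 cells expressing PTHR1 and a GloSensor cAMP reporter, 3,000/well, plated overnight, given luciferin plus IBMX (each 0.5 mM as added) for 1 h at 37 °C, then compound for 1 h at 37 °C. Luminescence was read after 15 min at room temperature.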
Note: nearly all actives have a fitted effect of over 55% in size.
Potency is the fitted concentration of half-maximal effect.

Chains of the proteins cited; added tags and fusions are not shown.
UniProt Q03431, whole entry, looked up: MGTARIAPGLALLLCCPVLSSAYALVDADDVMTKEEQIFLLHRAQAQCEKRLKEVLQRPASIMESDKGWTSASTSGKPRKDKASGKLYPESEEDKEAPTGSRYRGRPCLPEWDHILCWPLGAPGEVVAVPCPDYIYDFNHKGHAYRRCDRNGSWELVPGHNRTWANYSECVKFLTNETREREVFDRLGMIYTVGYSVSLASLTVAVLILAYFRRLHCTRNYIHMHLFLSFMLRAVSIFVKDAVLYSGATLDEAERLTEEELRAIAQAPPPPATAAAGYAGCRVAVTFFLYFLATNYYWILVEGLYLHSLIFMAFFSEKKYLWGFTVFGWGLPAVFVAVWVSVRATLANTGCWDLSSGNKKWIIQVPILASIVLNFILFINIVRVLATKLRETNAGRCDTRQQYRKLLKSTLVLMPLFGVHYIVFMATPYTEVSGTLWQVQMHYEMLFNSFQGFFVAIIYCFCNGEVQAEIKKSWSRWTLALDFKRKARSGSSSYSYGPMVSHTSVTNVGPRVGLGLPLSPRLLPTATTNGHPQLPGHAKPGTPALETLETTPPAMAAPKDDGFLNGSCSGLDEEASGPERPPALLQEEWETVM

Structure (SMILES) | outcome | Potency | activation
CC1CCCN(C(=O)CSc2nnc(-c3cccnc3)n2C2CCCCC2)C1 (stereo not given) | inactive |  | 
CCOC(=O)c1ccc(NC(=O)CSc2nc3sc(C(=O)O)c(C)c3c(=O)[nH]2)cc1 |  | inconclusive: 158 µM [activator, single point] | 
CC(CCc1ccc(O)cc1)NCc1ccc(Cl)cc1Cl (stereo not given) |  | inconclusive: 28.2 µM [activator, single point] | 
O=[N+]([O-])c1ccc(CSc2ccc(S(=O)(=O)N3CCCCCC3)cn2)cc1 |  |  | inactive: -20.1%
Cc1ccc2sc(C)[n+](CCO)c2c1 |  | inconclusive: 126 µM [activator, single point] | 
O=C(Cn1ncc2c3ccccc3n(Cc3ccc(F)cc3)c2c1=O)NCCC1=CCCCC1 | inactive |  | 
COC(=O)c1ccc(Cl)c(NC(=O)CN2CCN(Cc3ccccc3)CC2)c1 |  |  | inactive: -6.15%
CC(C)C(c1nnnn1Cc1cccs1)N1CCN(c2ccccc2)CC1 (stereo not given) |  | inconclusive: 63.1 µM [activator, single point] | 
O=C(CSc1nc(-c2ccc(F)cc2)cs1)N1CCOCC1 |  |  | inconclusive: 33.2% [activator] [at 57.5 µM]
CC(Oc1ccc(/C=N/NC(=O)Cc2cccc3ccccc23)cc1)C(=O)O (stereo not given) |  | inconclusive: 126 µM [activator, single point] | 
CC(C)c1ccc(NC(=O)C(C)N(c2ccccc2)S(C)(=O)=O)cc1 (stereo not given) |  |  | inconclusive: -41.2% [activator]
CSc1ccc(CCNC(=O)C2CCCN(c3nn4c(=O)cc(C)nc4s3)C2)cc1 (stereo not given) |  | inconclusive: 50.1 µM [activator, partial curve, poor fit] | 
O=C(Nc1ccc(N2C(=O)C3C4C=CC(C4)C3C2=O)cc1)Nc1cccnc1 (stereo not given) |  | inconclusive: 1 µM [activator, partial curve, poor fit] | 
COc1cc(OC)c(NC(=O)CCCn2nc(C)c3c(C)n(-c4ccccc4)nc3c2=O)cc1Cl |  | inconclusive: 126 µM [activator, single point] | 
CC(C)CCNC(=O)c1cc2cc(S(=O)(=O)N3CCCCC3)ccc2n1C |  |  | inactive: -9.87%
CCCNC(=O)c1ccc2c(c1)S(=O)(=O)c1ccccc1C2=O |  | inconclusive: 100 µM [activator, single point] | 
COc1ccc(NC(=O)CSc2nnnn2C2CCCC2)c(OC)c1 |  | inconclusive: 126 µM [activator, single point] | 
COc1ccccc1NC(=O)CSc1nnnn1C |  | inconclusive: 39.8 µM [activator, single point] | 
Cc1nc2nncn2c(NCc2ccc(Cl)cc2)c1C | inactive |  | 
O=C(CCNC(=O)C1CCN(S(=O)(=O)c2ccccc2)CC1)NCc1cccc(Cl)c1 |  |  | inactive: -32.2%
O=c1c2cn[nH]c2nc(SCc2cccc(Br)c2)n1-c1ccc(Cl)cc1 |  |  | inactive: -35.1%
C[C@H](CO)N1C[C@H](C)[C@@H](CN(C)S(=O)(=O)c2cccs2)Oc2ccc(NC(=O)Nc3ccc(C(F)(F)F)cc3)cc2C1=O | inactive |  | 
NC(=O)N/N=C1\c2ccccc2-c2c(C(N)=O)cccc21 |  | inconclusive: 158 µM [activator, partial curve, poor fit] | 

Structure (SMILES) | outcome | Potency | activation
CCOc1cc(CNCCSc2nnnn2C)cc(Br)c1OCc1ccccc1 |  |  | inactive: -25% [at 57.5 µM]
CCCCNc1ncnc2c1nnn2C |  |  | inconclusive: 38.6% [activator]
CCCCNC(=O)c1ccc2c(c1)NC(=O)C(CS(=O)(=O)Cc1cccc(C)c1)N2 (stereo not given) |  | inconclusive: 89.1 µM [activator, partial curve, poor fit] | 
CCC(=O)N1CCCc2cc(S(=O)(=O)N3CCN(c4ccccn4)CC3)ccc21 |  |  | inconclusive: 33.6% [activator]
Cc1cc(C)c(S(C)(=O)=O)c(Oc2cccc(Cl)c2)n1 | inactive |  | 
Cc1cc(C(=O)N(C)CC2CCCN(CCc3ccc(F)cc3)C2)c(C)o1 (stereo not given) |  | inconclusive: 7.67 µM [activator, partial curve, poor fit] | 
CCc1ccc(NC(=O)Cn2nc3c4ccccc4n(Cc4ccccc4)cc-3c2=O)cc1 | inactive |  | 
OCCC1CN(CC#Cc2ccccc2)CCN1C1CCCC1 (stereo not given) |  |  | inconclusive: 44.8% [activator]
CC1CN(CC(=O)Nc2cccc(C(=O)Nc3cccc(C(F)(F)F)c3)c2)CC(C)O1 (stereo not given) |  |  | inactive: -11.1% [at 57.5 µM]
COc1cccc(NC(=O)Cn2nnc(-c3nc(-c4ccccc4)no3)c2N)c1 |  | inconclusive: 126 µM [activator, single point] | 
COc1cccc(NC(=S)N(Cc2ccc(C(=O)O)cc2)Cc2ccc(OC)c(OC)c2)c1 |  | inconclusive: 0.767 µM [activator, full curve] | 
O=C(O)CCNS(=O)(=O)c1ccc(Oc2ccccc2Cl)cc1 |  | inconclusive: 44.7 µM [activator, single point] | 
Cc1ccc(NC2(C#N)CCCC2)cc1 |  | inconclusive: 112 µM [activator, single point] | 
C#CCOCCOCCOCCNc1nc(N2CCN(C(=O)[C@H](Cc3ccc(O)cc3)n3cc([C@@H](N)C(C)CC)nn3)CC2)nc(N2CCN(C(=O)[C@H](Cc3cc4ccccc4[nH]3)n3cc([C@@H](N)C(C)CC)nn3)CC2)n1 (stereo not given in full) |  | inconclusive: 112 µM [activator, single point] | 
NS(=O)(=O)c1cccc(NC(=O)CSc2nnc(NC3CC3)s2)c1 | inactive |  | 
Nc1nc(Br)c2c(F)cccc2c1-c1ccc(Cl)cc1 |  | inconclusive: 35.5 µM [activator, single point] | 
COc1ccc(NC(C)C(=O)N2CCN(Cc3ccccc3)CC2)cc1 (stereo not given) |  | inconclusive: 70.8 µM [activator, partial curve, poor fit] | 
CN(CC(=O)N1CCc2ccccc21)S(=O)(=O)c1cccs1 |  |  | inactive: -9.58%
O=C1CCC(=O)N1OCCOc1ccccc1 |  |  | inconclusive: -42.4% [activator]
CCCCCCC(C)n1[nH]c(=O)c2c(C)cc(C)nc21 (stereo not given) | inactive |  | 
Cc1nc(-c2ccc(Cl)cc2)sc1CCNC(=O)Cc1ccc(F)cc1 |  |  | inconclusive: -80.5% [activator]
CC1=C(C(=O)N(C)C)CC(CC(=O)NC(c2ccccc2)c2ccccc2)C(=O)N1Cc1ccc(C(C)(C)C)cc1 (stereo not given) | inactive |  | 

Among those listed so far, these contain bromine.
Structure (SMILES) | outcome | Potency | activation
O=c1c2cn[nH]c2nc(SCc2cccc(Br)c2)n1-c1ccc(Cl)cc1 |  |  | inactive: -35.1%
CCOc1cc(CNCCSc2nnnn2C)cc(Br)c1OCc1ccccc1 |  |  | inactive: -25% [at 57.5 µM]
Nc1nc(Br)c2c(F)cccc2c1-c1ccc(Cl)cc1 |  | inconclusive: 35.5 µM [activator, single point] | 

From PubChem BioAssay AID743266 (National Center for Advancing Translational Sciences (NCATS), 2014)
